According to PMC4650545:
No constants are given. Whether binding was seen depends on the method and setting. In cells and extracts the contact can be indirect. Some entries that bind do so weakly or less than the wild type.

By UniProt entry, the sequences of proteins in these tests, tags left out.
UniProt P08151: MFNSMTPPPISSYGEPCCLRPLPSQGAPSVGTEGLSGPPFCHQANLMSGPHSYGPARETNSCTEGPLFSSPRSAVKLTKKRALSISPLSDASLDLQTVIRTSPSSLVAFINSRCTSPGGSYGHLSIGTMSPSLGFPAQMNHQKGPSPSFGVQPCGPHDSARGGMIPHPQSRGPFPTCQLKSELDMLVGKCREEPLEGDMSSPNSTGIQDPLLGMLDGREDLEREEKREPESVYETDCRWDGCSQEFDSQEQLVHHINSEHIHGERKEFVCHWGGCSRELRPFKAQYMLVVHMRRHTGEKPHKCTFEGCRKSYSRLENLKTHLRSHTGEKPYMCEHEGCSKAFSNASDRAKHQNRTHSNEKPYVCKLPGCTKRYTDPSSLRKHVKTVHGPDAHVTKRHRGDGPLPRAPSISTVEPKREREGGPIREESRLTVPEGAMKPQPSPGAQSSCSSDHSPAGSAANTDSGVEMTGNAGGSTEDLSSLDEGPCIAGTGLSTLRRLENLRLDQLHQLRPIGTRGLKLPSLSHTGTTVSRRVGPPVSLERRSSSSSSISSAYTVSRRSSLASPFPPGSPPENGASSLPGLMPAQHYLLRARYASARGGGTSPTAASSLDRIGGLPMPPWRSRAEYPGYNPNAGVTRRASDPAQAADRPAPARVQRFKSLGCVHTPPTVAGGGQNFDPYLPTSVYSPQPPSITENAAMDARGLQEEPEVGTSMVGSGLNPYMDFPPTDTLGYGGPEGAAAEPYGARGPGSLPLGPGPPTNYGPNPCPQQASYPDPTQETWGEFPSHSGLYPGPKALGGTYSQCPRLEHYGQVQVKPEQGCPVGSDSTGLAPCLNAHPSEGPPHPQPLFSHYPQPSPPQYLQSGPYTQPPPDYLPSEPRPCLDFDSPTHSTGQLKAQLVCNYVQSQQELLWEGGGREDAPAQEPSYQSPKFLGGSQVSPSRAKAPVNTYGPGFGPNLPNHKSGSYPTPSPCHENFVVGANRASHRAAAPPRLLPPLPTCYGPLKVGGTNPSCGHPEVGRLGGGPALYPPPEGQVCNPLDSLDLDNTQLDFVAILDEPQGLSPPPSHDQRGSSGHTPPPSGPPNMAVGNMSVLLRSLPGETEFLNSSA
UniProt Q92831: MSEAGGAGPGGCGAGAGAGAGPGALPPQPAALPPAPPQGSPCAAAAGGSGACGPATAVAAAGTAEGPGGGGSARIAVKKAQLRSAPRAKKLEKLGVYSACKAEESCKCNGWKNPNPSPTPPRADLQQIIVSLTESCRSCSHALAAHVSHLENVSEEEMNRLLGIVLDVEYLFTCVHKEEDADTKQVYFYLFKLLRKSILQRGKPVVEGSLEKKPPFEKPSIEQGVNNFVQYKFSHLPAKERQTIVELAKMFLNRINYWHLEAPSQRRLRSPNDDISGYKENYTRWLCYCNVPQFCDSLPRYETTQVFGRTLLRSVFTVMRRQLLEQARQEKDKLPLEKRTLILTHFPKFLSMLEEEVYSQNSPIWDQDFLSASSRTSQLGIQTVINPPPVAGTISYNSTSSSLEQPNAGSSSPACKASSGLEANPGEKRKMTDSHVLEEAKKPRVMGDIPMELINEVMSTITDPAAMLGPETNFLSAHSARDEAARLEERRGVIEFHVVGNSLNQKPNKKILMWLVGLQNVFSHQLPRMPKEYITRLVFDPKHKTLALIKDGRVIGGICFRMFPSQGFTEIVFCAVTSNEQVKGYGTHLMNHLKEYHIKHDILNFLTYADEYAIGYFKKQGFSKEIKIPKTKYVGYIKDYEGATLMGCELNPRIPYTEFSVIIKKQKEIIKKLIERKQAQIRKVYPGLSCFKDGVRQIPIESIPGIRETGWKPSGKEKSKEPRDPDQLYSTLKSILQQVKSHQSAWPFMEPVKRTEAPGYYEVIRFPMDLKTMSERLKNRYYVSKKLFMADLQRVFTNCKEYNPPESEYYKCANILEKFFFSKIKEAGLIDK

Target: Glioma-associated oncogene 1 (GLI1), cytoplasmic, endogenous (human (endogenous in PLC/PRF/5 and Hep3B)) (UniProt P08151)
Test: co-IP; cytoplasmic extracts of PLC/PRF/5 PCAF cells and of wild-type Hep3B cells; immunoprecipitation buffer 50 mM Tris-HCl pH 8.0, 150 mM NaCl, 5 mM EDTA, 0.5% NP-40; primary antibodies against PCAF and GLI1 or IgG, 4 °C overnight; western immunoblotting

Substance | binding
P300/CBP-associated factor (PCAF), expressed from the PCAF-expressing plasmid (from UniProt Q92831 1-832) (enzyme) | binds
P300/CBP-associated factor (PCAF), endogenous in Hep3B cells (from UniProt Q92831 1-832) (enzyme) | binds
